Measurements published in patent publication US20030236306A1, “Stabilized formulations of alpha adrenergic receptor antagonists and the uses thereof” (priority 2002, published 2003).
Where a name gives a salt, the structure may show the parent alone. The source gives many values for each of these; only a part stands here. Each block holds one compound with its values, some of them ahead of it.

Columns and labels:
Assay type in all cases: physicochemical
[1] = Effect of sodium acetate buffer concentration on stability, pH 3.5, 60° C.
Protocol: (§1) The drug is monitored at a detection wavelength of 232 nm.
(§2) Tightly sealed glass vials containing the test solutions were placed in an oven at 40° C. or 60° C. All samples were stored in the dark. Aliquots were removed at designated time points for HPLC analysis and pH measurement.
In conjunction with HPLC analysis, pH was measured. The measurement was performed using the same samples as used for the HPLC analysis. The pH meter was calibrated using pH 4.00 and 7.00 buffer standards prior to each measurement.
Samples were incubated at 60° C. with scheduled testing performed at day 0, 2, 7, and 14. The various buffer concentrations were prepared by diluting the 50 mM buffer with water and re-examining the pH value to determine if the pH 3.5 was constant. Measurements of pH were performed after HPLC analysis of the samples.

[2] = Effect of additives on stability, pH 3.5, 60° C.; conditions: 10 mM Sodium Acetate
Protocol: as §1
The pH value of the solutions was readjusted to pH 3.5, as required.
All samples were placed in 10 ml glass serum vials, stoppered with rubber closures with an inert coating (Daikyo Flurotec by WEST Pharmaceutical), and sealed with flip-top caps after sampling. Vials were placed at 60° C. after the weights were recorded.
Sampling occurred at the initial time point and on days 2, 7, and 14.
Vials were weighed, sampled, sealed, re-weighed, and replaced under the selected storage condition until testing at the subsequent time point.

[3] = Effect of buffer anion on stability, pH 3, 60° C.
Protocol: as §1, §2
The test buffers included 50 mM sodium phosphate, 50 mM sodium acetate, 50 mM sodium lactate, 50 mM sodium citrate, and 50 mM sodium succinate buffers at pH 3.
The phosphate and acetate buffers were prepared as described above. The citrate buffer was prepared by adding 9.60 g of citric acid to water, adjusting the pH with 2 N NaOH to pH 3, and bringing the volume to 1 L in a volumetric flask. The lactate buffer was prepared by adding 2.25 g of lactic acid to water, adjusting the pH with 2 N NaOH to pH 3, and bringing the volume to 1L in a volumetric flask. The succinate buffer was prepared by adding 2.95 g succinic acid to water, adjusting the pH with 2 N NaOH to pH 3, and bringing the volume to 1 L in a volumetric flask.
Measurements of sample pH were done after HPLC analysis.

[4] = Sodium Acetate 0 mM (un-buffered), Day 0
[5] = Sodium Acetate 0 mM (un-buffered), Day 2
[6] = Sodium Acetate 0 mM (un-buffered), Day 7
[7] = Sodium Acetate 0 mM (un-buffered), Day 14
[8] = Propylene glycol, 25% w/v, Day 0
[9] = Propylene glycol, 25% w/v, Day 2
[10] = Propylene glycol, 25% w/v, Day 7
[11] = Propylene glycol, 25% w/v, Day 14
[12] = Sodium metabisulfite, 0.5 mg/ml, Day 0
[13] = Sodium metabisulfite, 0.5 mg/ml, Day 2
[14] = Sodium metabisulfite, 0.5 mg/ml, Day 7
[15] = Sodium metabisulfite, 0.5 mg/ml, Day 14
[16] = α-Cyclodextran, 50 mg/ml, Day 0
[17] = α-Cyclodextran, 50 mg/ml, Day 2
[18] = α-Cyclodextran, 50 mg/ml, Day 7
[19] = α-Cyclodextran, 50 mg/ml, Day 14

- Phentolamine Concentration [1, 4]: 90 µg/mL
- Phentolamine Purity [1, 4]: 99 % peak area
- Phentolamine Concentration [1, 5]: 92 µg/mL
- Phentolamine Purity [1, 5]: 99 % peak area
- Phentolamine Concentration [1, 6]: 82 µg/mL
- Phentolamine Purity [1, 6]: 98 % peak area
- Phentolamine Concentration [1, 7]: 77 µg/mL
- Phentolamine Purity [1, 7]: 97 % peak area
- Phentolamine Concentration ([1]; Sodium Acetate 5 mM, Day 0): 99 µg/mL
- Phentolamine Purity ([1]; Sodium Acetate 5 mM, Day 0): 99 % peak area
- Phentolamine Concentration ([1]; Sodium Acetate 5 mM, Day 2): 97 µg/mL
- Phentolamine Purity ([1]; Sodium Acetate 5 mM, Day 2): 99 % peak area
- Phentolamine Concentration ([1]; Sodium Acetate 5 mM, Day 7): 94 µg/mL
- Phentolamine Purity ([1]; Sodium Acetate 5 mM, Day 7): 98 % peak area
- Phentolamine Concentration ([1]; Sodium Acetate 5 mM, Day 14): 92 µg/mL
- Phentolamine Purity ([1]; Sodium Acetate 5 mM, Day 14): 98 % peak area
- Phentolamine Concentration ([1]; Sodium Acetate 10 mM, Day 0): 100 µg/mL
- Phentolamine Purity ([1]; Sodium Acetate 10 mM, Day 0): 99 % peak area
- Phentolamine Concentration ([1]; Sodium Acetate 10 mM, Day 2): 97 µg/mL
- Phentolamine Purity ([1]; Sodium Acetate 10 mM, Day 2): 99 % peak area
- Phentolamine Concentration ([1]; Sodium Acetate 10 mM, Day 7): 96 µg/mL
- Phentolamine Purity ([1]; Sodium Acetate 10 mM, Day 7): 98 % peak area
- Phentolamine Concentration ([1]; Sodium Acetate 10 mM, Day 14): 92 µg/mL
- Phentolamine Purity ([1]; Sodium Acetate 10 mM, Day 14): 98 % peak area
- Phentolamine Concentration ([1]; Sodium Acetate 50 mM, Day 0): 103 µg/mL
- Phentolamine Purity ([1]; Sodium Acetate 50 mM, Day 0): 98 % peak area
- Phentolamine Concentration ([1]; Sodium Acetate 50 mM, Day 2): 101 µg/mL
- Phentolamine Purity ([1]; Sodium Acetate 50 mM, Day 2): 98 % peak area
- Phentolamine Concentration ([1]; Sodium Acetate 50 mM, Day 7): 99 µg/mL
- Phentolamine Purity ([1]; Sodium Acetate 50 mM, Day 7): 98 % peak area
- Phentolamine Concentration ([1]; Sodium Acetate 50 mM, Day 14): 96 µg/mL
- Phentolamine Purity ([1]; Sodium Acetate 50 mM, Day 14): 96 % peak area
- Phentolamine Purity ([2]; EDTA, 0.7 mg/ml, Day 0): 99 % Peak Area
- Phentolamine Purity ([2]; EDTA, 0.7 mg/ml, Day 2): 99 % Peak Area
- Phentolamine Concentration ([2]; EDTA, 0.7 mg/ml, Day 7): 103 µg/mL
- Phentolamine Purity ([2]; EDTA, 0.7 mg/ml, Day 7): 99 % Peak Area
- Phentolamine Concentration ([2]; EDTA, 0.7 mg/ml, Day 14): 99 µg/mL
- Phentolamine Purity ([2]; EDTA, 0.7 mg/ml, Day 14): 98 % Peak Area
- Phentolamine Concentration ([2]; Glycerol, 25% w/v, Day 0): 126 µg/mL
- Phentolamine Purity ([2]; Glycerol, 25% w/v, Day 0): 98 % Peak Area
- Phentolamine Concentration ([2]; Glycerol, 25% w/v, Day 2): 123 µg/mL
- Phentolamine Purity ([2]; Glycerol, 25% w/v, Day 2): 98 % Peak Area
- Phentolamine Concentration ([2]; Glycerol, 25% w/v, Day 7): 120 µg/mL
- Phentolamine Purity ([2]; Glycerol, 25% w/v, Day 7): 93 % Peak Area
- Phentolamine Concentration ([2]; Glycerol, 25% w/v, Day 14): 115 µg/mL
- Phentolamine Purity ([2]; Glycerol, 25% w/v, Day 14): 94 % Peak Area
- Phentolamine Concentration ([2]; NaCl, 50 mg/ml, Day 0): 94 µg/mL
- Phentolamine Purity ([2]; NaCl, 50 mg/ml, Day 0): 94 % Peak Area
- Phentolamine Concentration ([2]; NaCl, 50 mg/ml, Day 2): 98 µg/mL
- Phentolamine Purity ([2]; NaCl, 50 mg/ml, Day 2): 99 % Peak Area
- Phentolamine Concentration ([2]; NaCl, 50 mg/ml, Day 7): 80 µg/mL
- Phentolamine Purity ([2]; NaCl, 50 mg/ml, Day 7): 89 % Peak Area
- Phentolamine Concentration ([2]; NaCl, 50 mg/ml, Day 14): 74 µg/mL
- Phentolamine Purity ([2]; NaCl, 50 mg/ml, Day 14): 85 % Peak Area
- Phentolamine Concentration ([2]; Niacinamide, 50 mg/ml, Day 0): 90 µg/mL
- Phentolamine Purity ([2]; Niacinamide, 50 mg/ml, Day 0): 99 % Peak Area
- Phentolamine Concentration ([2]; Niacinamide, 50 mg/ml, Day 2): 90 µg/mL
- Phentolamine Purity ([2]; Niacinamide, 50 mg/ml, Day 2): 100 % Peak Area
- Phentolamine Concentration ([2]; Niacinamide, 50 mg/ml, Day 7): 78 µg/mL
- Phentolamine Purity ([2]; Niacinamide, 50 mg/ml, Day 7): 93 % Peak Area
- Phentolamine Concentration ([2]; Niacinamide, 50 mg/ml, Day 14): 92 µg/mL
- Phentolamine Purity ([2]; Niacinamide, 50 mg/ml, Day 14): 90 % Peak Area
- Phentolamine Concentration ([2]; No additive, Day 0): 90 µg/mL
- Phentolamine Purity ([2]; No additive, Day 0): 99 % Peak Area
- Phentolamine Concentration ([2]; No additive, Day 2): 92 µg/mL
- Phentolamine Purity ([2]; No additive, Day 2): 98 % Peak Area
- Phentolamine Concentration ([2]; No additive, Day 7): 82 µg/mL
- Phentolamine Purity ([2]; No additive, Day 7): 98 % Peak Area
- Phentolamine Concentration ([2]; No additive, Day 14): 77 µg/mL
- Phentolamine Purity ([2]; No additive, Day 14): 97 % Peak Area
- Phentolamine Concentration [2, 8]: 118 µg/mL
- Phentolamine Purity [2, 8]: 93 % Peak Area
- Phentolamine Concentration [2, 9]: 121 µg/mL
- Phentolamine Purity [2, 9]: 97 % Peak Area
- Phentolamine Concentration [2, 10]: 113 µg/mL
- Phentolamine Purity [2, 10]: 93 % Peak Area
- Phentolamine Concentration [2, 11]: 106 µg/mL
- Phentolamine Purity [2, 11]: 90 % Peak Area
- Phentolamine Concentration [2, 12]: 97 µg/mL
- Phentolamine Purity [2, 12]: 97 % Peak Area
- Phentolamine Concentration [2, 13]: 101 µg/mL
- Phentolamine Purity [2, 13]: 99 % Peak Area
- Phentolamine Concentration [2, 14]: 84 µg/mL
- Phentolamine Purity [2, 14]: 95 % Peak Area
- Phentolamine Concentration [2, 15]: 74 µg/mL
- Phentolamine Purity [2, 15]: 92 % Peak Area
- Phentolamine Concentration ([2]; d-Mannitol, 40 mg/ml, Day 0): 98 µg/mL
- Phentolamine Purity ([2]; d-Mannitol, 40 mg/ml, Day 0): 96 % Peak Area
- Phentolamine Concentration ([2]; d-Mannitol, 40 mg/ml, Day 2): 96 µg/mL
- Phentolamine Purity ([2]; d-Mannitol, 40 mg/ml, Day 2): 97 % Peak Area
- Phentolamine Concentration ([2]; d-Mannitol, 40 mg/ml, Day 7): 98 µg/mL
- Phentolamine Purity ([2]; d-Mannitol, 40 mg/ml, Day 7): 96 % Peak Area
- Phentolamine Concentration ([2]; d-Mannitol, 40 mg/ml, Day 14): 91 µg/mL
- Phentolamine Purity ([2]; d-Mannitol, 40 mg/ml, Day 14): 97 % Peak Area
- Phentolamine Concentration [2, 16]: 102 µg/mL
- Phentolamine Purity [2, 16]: 98 % Peak Area
- Phentolamine Concentration [2, 17]: 99 µg/mL
- Phentolamine Purity [2, 17]: 99 % Peak Area
- Phentolamine Concentration [2, 18]: 96 µg/mL
- Phentolamine Purity [2, 18]: 98 % Peak Area
- Phentolamine Concentration [2, 19]: 94 µg/mL
- Phentolamine Purity [2, 19]: 98 % Peak Area
SMILES: Cc1ccc(N(CC2=NCCN2)c2cccc(O)c2)cc1 [Phentolamine Mesylate, phentolamine mesylate]

- Phentolamine Purity ([3]; 50 mM Citrate (sodium salt) pH 3.0, 60° C., Day 0): 97 % peak area
- Phentolamine Purity ([3]; 50 mM Citrate (sodium salt) pH 3.0, 60° C., Day 2): 91 % peak area
- Phentolamine Purity ([3]; 50 mM Citrate (sodium salt) pH 3.0, 60° C., Day 7): 77 % peak area
- Phentolamine Purity ([3]; 50 mM Citrate (sodium salt) pH 3.0, 60° C., Day 14): 69 % peak area
- Phentolamine Purity ([3]; 50 mM Lactate (sodium salt) pH 3.0, 60° C., Day 0): 99 % peak area
- Phentolamine Purity ([3]; 50 mM Lactate (sodium salt) pH 3.0, 60° C., Day 2): 98 % peak area
- Phentolamine Purity ([3]; 50 mM Lactate (sodium salt) pH 3.0, 60° C., Day 7): 94 % peak area
- Phentolamine Purity ([3]; 50 mM Lactate (sodium salt) pH 3.0, 60° C., Day 14): 89 % peak area
- Phentolamine Purity ([3]; 50 mM Succinate (sodium salt) pH 3.0, 60° C., Day 0): 99 % peak area
- Phentolamine Purity ([3]; 50 mM Succinate (sodium salt) pH 3.0, 60° C., Day 2): 92 % peak area
- Phentolamine Purity ([3]; 50 mM Succinate (sodium salt) pH 3.0, 60° C., Day 7): 78 % peak area
- Phentolamine Purity ([3]; 50 mM Succinate (sodium salt) pH 3.0, 60° C., Day 14): 74 % peak area
SMILES: Cc1ccc(N(CC2=NCCN2)c2cccc(O)c2)cc1 [Phentolamine, phentolamine]
